{"sequences": {"note": "Protein sequences, listed by entry. Tags and fused reporters are not part of them. Lines headed by an entry give the natural chain unless they say otherwise; changes in a name come on top.", "UniProt O75330": "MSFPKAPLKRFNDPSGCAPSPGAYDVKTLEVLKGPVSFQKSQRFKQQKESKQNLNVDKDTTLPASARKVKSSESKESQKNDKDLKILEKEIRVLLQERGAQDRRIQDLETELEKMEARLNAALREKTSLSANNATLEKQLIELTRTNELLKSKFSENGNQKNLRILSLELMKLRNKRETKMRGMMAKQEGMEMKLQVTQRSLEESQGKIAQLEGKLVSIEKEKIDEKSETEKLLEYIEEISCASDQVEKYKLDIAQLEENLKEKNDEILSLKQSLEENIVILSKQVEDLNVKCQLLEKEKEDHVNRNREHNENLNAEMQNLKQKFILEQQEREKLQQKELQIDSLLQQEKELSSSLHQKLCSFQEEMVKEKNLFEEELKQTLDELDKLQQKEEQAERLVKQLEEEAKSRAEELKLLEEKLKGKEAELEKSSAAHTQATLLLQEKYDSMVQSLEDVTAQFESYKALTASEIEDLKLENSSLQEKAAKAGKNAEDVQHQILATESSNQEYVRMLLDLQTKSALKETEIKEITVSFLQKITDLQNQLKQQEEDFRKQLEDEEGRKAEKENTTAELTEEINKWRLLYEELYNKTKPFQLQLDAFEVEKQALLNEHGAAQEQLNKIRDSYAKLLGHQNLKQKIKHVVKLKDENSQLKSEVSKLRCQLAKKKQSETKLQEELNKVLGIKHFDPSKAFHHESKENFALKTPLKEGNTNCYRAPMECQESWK", "UniProt O75582, whole entry, looked up": "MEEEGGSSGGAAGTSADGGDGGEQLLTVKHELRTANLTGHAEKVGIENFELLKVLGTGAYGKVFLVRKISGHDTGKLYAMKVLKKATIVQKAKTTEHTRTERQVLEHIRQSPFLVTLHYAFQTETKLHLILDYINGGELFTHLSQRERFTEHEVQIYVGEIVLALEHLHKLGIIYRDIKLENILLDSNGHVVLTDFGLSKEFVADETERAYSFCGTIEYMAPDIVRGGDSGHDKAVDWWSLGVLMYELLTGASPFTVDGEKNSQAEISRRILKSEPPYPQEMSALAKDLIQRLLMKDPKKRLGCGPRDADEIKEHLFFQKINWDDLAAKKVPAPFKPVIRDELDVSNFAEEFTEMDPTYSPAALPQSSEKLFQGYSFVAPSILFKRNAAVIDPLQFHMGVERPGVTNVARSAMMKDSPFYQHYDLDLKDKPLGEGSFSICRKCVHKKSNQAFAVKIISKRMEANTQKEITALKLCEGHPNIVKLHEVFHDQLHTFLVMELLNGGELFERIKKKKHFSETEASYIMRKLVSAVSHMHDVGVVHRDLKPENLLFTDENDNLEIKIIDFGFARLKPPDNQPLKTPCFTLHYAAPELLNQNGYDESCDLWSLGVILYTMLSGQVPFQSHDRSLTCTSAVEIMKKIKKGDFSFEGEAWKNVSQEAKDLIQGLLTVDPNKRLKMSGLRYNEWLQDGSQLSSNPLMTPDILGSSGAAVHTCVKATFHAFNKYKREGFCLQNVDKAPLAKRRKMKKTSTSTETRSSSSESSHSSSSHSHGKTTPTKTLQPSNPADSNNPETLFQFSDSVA", "UniProt O75915": "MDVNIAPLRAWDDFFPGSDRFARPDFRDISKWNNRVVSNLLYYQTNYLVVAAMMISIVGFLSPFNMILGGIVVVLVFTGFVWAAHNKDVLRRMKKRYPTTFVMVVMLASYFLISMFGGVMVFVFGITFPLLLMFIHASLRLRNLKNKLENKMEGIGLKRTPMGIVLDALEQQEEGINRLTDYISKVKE", "UniProt O95219": "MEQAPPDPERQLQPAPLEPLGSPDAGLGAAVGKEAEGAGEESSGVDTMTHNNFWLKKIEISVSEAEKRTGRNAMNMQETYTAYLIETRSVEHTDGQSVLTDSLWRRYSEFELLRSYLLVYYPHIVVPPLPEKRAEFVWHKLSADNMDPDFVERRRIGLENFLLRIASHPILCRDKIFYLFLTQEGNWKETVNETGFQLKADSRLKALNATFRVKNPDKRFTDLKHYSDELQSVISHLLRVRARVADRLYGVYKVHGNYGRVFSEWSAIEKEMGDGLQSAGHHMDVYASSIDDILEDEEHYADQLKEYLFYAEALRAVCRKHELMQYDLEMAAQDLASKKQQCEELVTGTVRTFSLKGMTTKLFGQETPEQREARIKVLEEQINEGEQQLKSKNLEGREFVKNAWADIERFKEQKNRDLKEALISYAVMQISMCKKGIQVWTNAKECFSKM", "UniProt P04066": "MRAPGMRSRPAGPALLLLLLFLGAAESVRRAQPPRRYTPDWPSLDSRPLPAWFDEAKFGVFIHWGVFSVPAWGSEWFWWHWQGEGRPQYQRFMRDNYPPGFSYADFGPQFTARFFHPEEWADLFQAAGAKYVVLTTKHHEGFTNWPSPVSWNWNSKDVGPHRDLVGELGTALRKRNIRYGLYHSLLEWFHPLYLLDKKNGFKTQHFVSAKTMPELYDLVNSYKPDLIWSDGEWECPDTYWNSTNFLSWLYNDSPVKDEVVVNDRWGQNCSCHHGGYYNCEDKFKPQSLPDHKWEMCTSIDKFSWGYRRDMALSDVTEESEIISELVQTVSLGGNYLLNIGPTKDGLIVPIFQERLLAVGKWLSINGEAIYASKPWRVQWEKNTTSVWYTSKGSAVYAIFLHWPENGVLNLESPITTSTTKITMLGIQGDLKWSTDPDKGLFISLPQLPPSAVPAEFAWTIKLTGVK"}, "source": "the supplement of paper PMC6411743", "compound": "Nc1nc2c(ncn2[C@@H]2O[C@H](COP(=O)(O)OP(=O)(O)OP(=O)(O)O)[C@@H](O)[C@H]2O)c(=O)[nH]1 [guanosine triphosphate]", "experiment": "NP40-soluble protein abundance relative to vehicle (solubility fold change) (ratio); higher = more soluble protein in presence of GTP", "method": "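Solubility proteome profiling in Jurkat crude lysate. Lysate was treated with Mg-GTP (0.1-10 mM) for 10 min at room temperature and 3 min at 37 °C, then solubilised with 0.8% NP40 and benzonase, followed by ultracentrifugation. Proteins were quantified by TMT10 LC-MS/MS; the value is the NP40-soluble abundance relative to the NP40-processed vehicle, from 3 independent experiments.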", "note": "± gives the standard deviation of the averaged measurements. This is one part of the list."}
{"target": "UniProt O75330 and related entries", "values": [{"measurement": "NP40-soluble protein abundance", "setting": "concentration: 0.1mM", "value": "1.03 ± 0.049"}, {"measurement": "NP40-soluble protein abundance", "setting": "concentration: 0.5mM", "value": "0.9475 ± 0.0087"}, {"measurement": "NP40-soluble protein abundance", "setting": "concentration: 1mM", "value": "1.08 ± 0.061"}, {"measurement": "NP40-soluble protein abundance", "setting": "concentration: 2mM", "value": "1.08 ± 0.041"}, {"measurement": "NP40-soluble protein abundance", "setting": "concentration: 4mM", "value": "1.06 ± 0.026"}, {"measurement": "NP40-soluble protein abundance", "setting": "concentration: 6mM", "value": "1.05 ± 0.076"}, {"measurement": "NP40-soluble protein abundance", "setting": "concentration: 8mM", "value": "1.07 ± 0.016"}, {"measurement": "NP40-soluble protein abundance", "setting": "concentration: 10mM", "value": "1.12 ± 0.03"}]}
{"target": "UniProt O75582 and related entries", "values": [{"measurement": "NP40-soluble protein abundance", "setting": "concentration: 0.1mM", "value": "1.05 ± 0.079"}, {"measurement": "NP40-soluble protein abundance", "setting": "concentration: 0.5mM", "value": "1.06 ± 0.059"}, {"measurement": "NP40-soluble protein abundance", "setting": "concentration: 1mM", "value": "0.965 ± 0.044"}, {"measurement": "NP40-soluble protein abundance", "setting": "concentration: 2mM", "value": "0.965 ± 0.068"}, {"measurement": "NP40-soluble protein abundance", "setting": "concentration: 4mM", "value": "0.979 ± 0.083"}, {"measurement": "NP40-soluble protein abundance", "setting": "concentration: 6mM", "value": "0.965 ± 0.056"}, {"measurement": "NP40-soluble protein abundance", "setting": "concentration: 8mM", "value": "0.934 ± 0.031"}, {"measurement": "NP40-soluble protein abundance", "setting": "concentration: 10mM", "value": "0.912 ± 0.044"}]}
{"target": "ARL6IP5 (UniProt O75915)", "values": [{"measurement": "NP40-soluble protein abundance", "setting": "concentration: 0.1mM", "value": "0.965 ± 0.096"}, {"measurement": "NP40-soluble protein abundance", "setting": "concentration: 0.5mM", "value": "0.983 ± 0.078"}, {"measurement": "NP40-soluble protein abundance", "setting": "concentration: 1mM", "value": "0.861 ± 0.06"}, {"measurement": "NP40-soluble protein abundance", "setting": "concentration: 2mM", "value": "0.83 ± 0.027"}, {"measurement": "NP40-soluble protein abundance", "setting": "concentration: 4mM", "value": "0.798 ± 0.023"}, {"measurement": "NP40-soluble protein abundance", "setting": "concentration: 6mM", "value": "0.876 ± 0.075"}, {"measurement": "NP40-soluble protein abundance", "setting": "concentration: 8mM", "value": "0.813 ± 0.06"}, {"measurement": "NP40-soluble protein abundance", "setting": "concentration: 10mM", "value": "0.775 ± 0.028"}]}
{"target": "SNX4 (UniProt O95219)", "values": [{"measurement": "NP40-soluble protein abundance", "setting": "concentration: 0.1mM", "value": "1.03 ± 0.0014"}, {"measurement": "NP40-soluble protein abundance", "setting": "concentration: 0.5mM", "value": "1 ± 0.054"}, {"measurement": "NP40-soluble protein abundance", "setting": "concentration: 1mM", "value": "1.01 ± 0.067"}, {"measurement": "NP40-soluble protein abundance", "setting": "concentration: 2mM", "value": "1.07 ± 0.072"}, {"measurement": "NP40-soluble protein abundance", "setting": "concentration: 4mM", "value": "1.04 ± 0.062"}, {"measurement": "NP40-soluble protein abundance", "setting": "concentration: 6mM", "value": "0.957 ± 0.082"}, {"measurement": "NP40-soluble protein abundance", "setting": "concentration: 8mM", "value": "0.983 ± 0.086"}, {"measurement": "NP40-soluble protein abundance", "setting": "concentration: 10mM", "value": "0.9 ± 0.052"}]}
{"target": "FUCA1 (UniProt P04066)", "values": [{"measurement": "NP40-soluble protein abundance", "setting": "concentration: 0.1mM", "value": "1.04 ± 0.18"}, {"measurement": "NP40-soluble protein abundance", "setting": "concentration: 0.5mM", "value": "1.03 ± 0.17"}, {"measurement": "NP40-soluble protein abundance", "setting": "concentration: 1mM", "value": "0.901 ± 0.1"}, {"measurement": "NP40-soluble protein abundance", "setting": "concentration: 2mM", "value": "0.881 ± 0.18"}, {"measurement": "NP40-soluble protein abundance", "setting": "concentration: 4mM", "value": "0.877 ± 0.12"}, {"measurement": "NP40-soluble protein abundance", "setting": "concentration: 6mM", "value": "0.856 ± 0.11"}, {"measurement": "NP40-soluble protein abundance", "setting": "concentration: 8mM", "value": "0.942 ± 0.29"}, {"measurement": "NP40-soluble protein abundance", "setting": "concentration: 10mM", "value": "0.855 ± 0.088"}]}
